From article PMC5427286

Sequences of proteins named here, by UniProt entry; tags and fusion partners are left off. A change or cut given only in a name is not applied to a line headed by its entry. Residues count along the entry.
UniProt P31170, residues 44-227: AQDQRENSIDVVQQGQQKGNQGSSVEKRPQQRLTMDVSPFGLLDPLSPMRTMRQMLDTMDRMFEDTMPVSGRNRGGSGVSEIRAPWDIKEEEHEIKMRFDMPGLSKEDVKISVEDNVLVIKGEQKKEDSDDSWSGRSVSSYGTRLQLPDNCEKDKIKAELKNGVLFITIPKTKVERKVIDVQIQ

Molecular target: Hsp21, the 21-kDa chloroplast-localized small heat-shock protein of Arabidopsis thaliana (A. thaliana) (UniProt P31170)
Test: cross-linking; BS3 (lysine-specific), 50 uM protein, 10- or 60-fold excess of cross-linker, room temperature, 20 min; in-gel or in-solution trypsin digestion and LC-MS/MS; mixed isotope labeling: unlabeled and 15N-labeled protein incubated at 37 C for 1 h before cross-linking, hybrid 14N-15N cross-links taken as intersubunit; both purified

binding: binds
Substance: Hsp21^V181A, non-dodecameric mutational variant of Hsp21 (from UniProt P31170)

These are yes or no findings as the source states them, for the method shown. Binding calls can cover weak binding; strength is not graded here.
